Values from PubChem BioAssay AID1259254 (NCATS, 2017)
Test: 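Finding genes that stop cells copying their DNA twice in one cycle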 (primary screen). System: human HCT116 colorectal cancer cells. Reagents: single siRNA against human genes. Duration: 3 days. Read-out: 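Imaged Hoechst DNA stain sorts each cell into a cycle phase by DNA amount; per plate, G2 fraction set to 0% for non-targeting and 100% for GMNN siRNA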. Reading the numbers: G2 robust z-score and G2 cells, % of GMNN control: higher = more G2 cells, more excess DNA replication. Active means: 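Active siRNAs have a G2 robust z of 5 or more median absolute deviations over the median, which in these data means about 38% or higher of GMNN control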.
This is an unselected part of about 59,000 reagents. About 1,550 of all reagents (2.6%) count as active. 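G2 share is only a proxy for re-replication; each gene was hit by three separate siRNAs, and active genes were retested.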 Further read-outs or replicates are left out here. Not stated in the record: the amount of reagent.

| gene | PubChem SID | G2 robust z-score | G2 cells, % of GMNN control | call |
| --- | --- | --- | --- | --- |
| PAIP2B | SID160767108 | -0.873 | -3.18 | inactive |
| PAIP2B | SID160767109 | 0.344 | 5.38 | inactive |
| PAIP2B | SID160767111 | 0.0591 | 3.38 | inactive |
| GPN2 | SID160724438 | 1.76 | 15.4 | inactive |
| GPN2 | SID160742047 | 5.05 | 38.5 | active |
| GPN2 | SID160742048 | -0.177 | 1.72 | inactive |
| FSCN3 | SID160739473 | -0.0518 | 2.6 | inactive |
| FSCN3 | SID160739474 | -0.134 | 2.03 | inactive |
| FSCN3 | SID160739475 | 0.118 | 3.79 | inactive |
| CUL4A | SID160720069 | 0.175 | 4.2 | inactive |
| CUL4A | SID160720070 | -0.295 | 0.891 | inactive |
| CUL4A | SID160720071 | -0.182 | 1.69 | inactive |
| TPSD1 | SID160736273 | -1.1 | -4.77 | inactive |
| TPSD1 | SID160736274 | -0.702 | -1.97 | inactive |
| TPSD1 | SID160736275 | 0.0115 | 3.05 | inactive |
| SLITRK4 | SID160757644 | -0.279 | 1 | inactive |
| SLITRK4 | SID160757645 | -0.188 | 1.65 | inactive |
| SLITRK4 | SID160757646 | -0.658 | -1.66 | inactive |
| VPS54 | SID160740972 | 0.925 | 9.48 | inactive |
| VPS54 | SID160740973 | 0.339 | 5.35 | inactive |
| VPS54 | SID160740974 | 0.423 | 5.94 | inactive |
| KIRREL3 | SID160752457 | -0.711 | -2.03 | inactive |
| KIRREL3 | SID160752458 | -0.949 | -3.71 | inactive |
| KIRREL3 | SID160752459 | 1.23 | 11.6 | inactive |
| TRUB1 | SID160757999 | 0.309 | 5.14 | inactive |
| TRUB1 | SID160758000 | -0.396 | 0.183 | inactive |
| TRUB1 | SID160758001 | 1.31 | 12.2 | inactive |
| DSTYK | SID160736956 | -1.36 | -6.6 | inactive |
| DSTYK | SID160736957 | -1.26 | -5.89 | inactive |
| DSTYK | SID160736959 | 0.0181 | 3.09 | inactive |
| PPP1R13L | SID160724296 | 1.75 | 15.3 | inactive |
| PPP1R13L | SID160729336 | 2.34 | 19.4 | inactive |
| PPP1R13L | SID160729337 | -0.325 | 0.682 | inactive |
| JAM3 | SID160751335 | 0.177 | 4.21 | inactive |
| JAM3 | SID160751336 | 4.8 | 36.7 | inactive |
| JAM3 | SID160751337 | -0.461 | -0.273 | inactive |
| TBX5-AS1 | SID160732820 | 0.189 | 4.3 | inactive |
| TBX5-AS1 | SID160732821 | -0.537 | -0.811 | inactive |
| TBX5-AS1 | SID160762333 | 0.987 | 9.91 | inactive |
| SAMM50 | SID160737026 | 1.61 | 14.3 | inactive |
| SAMM50 | SID160737027 | -0.742 | -2.25 | inactive |
| SAMM50 | SID160737028 | -0.593 | -1.2 | inactive |
| GPBAR1 | SID160724882 | -0.32 | 0.718 | inactive |
| GPBAR1 | SID160759093 | 2.39 | 19.8 | inactive |
| GPBAR1 | SID160759094 | 2.11 | 17.8 | inactive |
| GPAT4 | SID160757549 | 9.45 | 69.5 | active |
| GPAT4 | SID160757550 | -0.604 | -1.28 | inactive |
| GPAT4 | SID160757551 | -0.93 | -3.58 | inactive |
| EIF2AK4 | SID160767740 | -0.64 | -1.53 | inactive |
| EIF2AK4 | SID160767741 | 0.0419 | 3.26 | inactive |
| EIF2AK4 | SID160767742 | 2.63 | 21.5 | inactive |
| RPS17P16 | SID160725346 | 4.44 | 34.2 | inactive |
| RPS17P16 | SID160733352 | -0.968 | -3.85 | inactive |
| RPS17P16 | SID160767405 | 2.1 | 17.7 | inactive |
| UBXN2A | SID160760166 | -0.116 | 2.15 | inactive |
| UBXN2A | SID160760167 | -0.476 | -0.382 | inactive |
| UBXN2A | SID160760168 | 0.0366 | 3.22 | inactive |
| PPP1R17 | SID160729320 | 0.257 | 4.78 | inactive |
| PPP1R17 | SID160729321 | -0.314 | 0.759 | inactive |
| PPP1R17 | SID160729322 | 0.452 | 6.15 | inactive |
| CENPVL3 | SID160725121 | -0.95 | -3.72 | inactive |
| CENPVL3 | SID160725123 | 0.37 | 5.57 | inactive |
| CENPVL3 | SID160765001 | -0.935 | -3.61 | inactive |
| SERPINB2 | SID160713802 | -0.69 | -1.89 | inactive |
| SERPINB2 | SID160713803 | -0.405 | 0.115 | inactive |
| SERPINB2 | SID160713804 | -0.618 | -1.38 | inactive |
| PICALM | SID160719815 | -0.0301 | 2.76 | inactive |
| PICALM | SID160719818 | 0.66 | 7.61 | inactive |
| PICALM | SID160719819 | 0.945 | 9.62 | inactive |
